Experimental data taken from PMC6420597, “The MurG glycosyltransferase provides an oligomeric scaffold for the cytoplasmic steps of peptidoglycan biosynthesis in the human pathogen Bordetella pertussis” (Scientific Reports, 2019).

Experiments:
[1] = target: T1, MurG glycosyltransferase from Bordetella pertussis, N-terminal Strep-tagged (Bordetella pertussis (strain ATCC 9797/DSM No 5571)) (UniProt Q7VUQ3); assay: far-Western, overlay or dot blot; dot blot: MurG purified in 1.2 x CMC DDM (dimeric) spotted on nitrocellulose, 50 ng to 1 μg; incubated overnight at 4 °C with 0.1 mg/mL MurE-MurF in PBS-T; detected with anti-MurE-MurF antibodies; both purified
T1 sequence: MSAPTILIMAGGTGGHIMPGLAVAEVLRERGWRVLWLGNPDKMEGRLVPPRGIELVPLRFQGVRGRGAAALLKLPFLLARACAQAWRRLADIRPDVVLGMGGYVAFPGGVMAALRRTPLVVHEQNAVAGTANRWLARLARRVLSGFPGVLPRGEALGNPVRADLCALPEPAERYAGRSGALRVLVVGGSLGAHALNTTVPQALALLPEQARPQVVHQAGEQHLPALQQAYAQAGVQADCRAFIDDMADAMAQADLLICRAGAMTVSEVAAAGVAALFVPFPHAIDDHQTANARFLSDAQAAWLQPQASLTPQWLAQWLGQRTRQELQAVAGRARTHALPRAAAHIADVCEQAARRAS

[2] = target: T1, MurG glycosyltransferase from Bordetella pertussis, N-terminal Strep-tagged (Bordetella pertussis (strain ATCC 9797/DSM No 5571)); assay: far-Western, overlay or dot blot; dot blot: MurG purified without detergent (oligomeric) spotted on nitrocellulose, 50 ng to 1 μg; incubated overnight at 4 °C with 0.1 mg/mL MurE-MurF in PBS-T; detected with anti-MurE-MurF antibodies; both purified

In the case of “MurE-MurF bifunctional fusion protein from Bordetella pertussis, His-tagged (enzyme)”, the binding [1] is reported as “binds” and the binding [2] is reported as “binds”.

These are yes or no findings as the source states them, for the method shown. Binding can be weak; no strength is given. Tags and fused reporters may be left off the sequences shown.
